The assay is described as follows: qHTS Assay to Find Inhibitors of Chronic Active B-Cell Receptor Signaling. The settings on record: ABC-DLBCL IkBa-CBG/CBR reporter, luminescence ratio (green luciferase fused to IkBa over red control in TMD8 lymphoma cells), 4 h. In short, it runs like this:
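Concentration-response series (up to 46 uM) were applied to TMD8 dual-reporter cells for 4 h at 37C with doxycycline. Green/red ratio, after filter-overlap correction, defined %Activity; red signal alone was normalised to basal cells and zero luminescence.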

The mark [1] stands for this setting: measured here: CBR red luminescence, cell number.
The mark [2] stands for this setting: measured here: IkBa-CBG green luminescence.

The list shows a part of the results. Further columns of the screen follow, without active or inactive calls. Most of these compounds were active or inconclusive in the main read-out, so they are no random draw. Potencies come from curve fits of mixed quality, noted in brackets.

From PubChem BioAssay AID493014 (National Center for Advancing Translational Sciences (NCATS), 2011) come the findings set out here.

As to `OC(COC(c1ccc(Cl)cc1)c1ccc(Cl)cc1)CN1CCN(c2ccccn2)CC1` (stereo not drawn), the concentration at half-maximal activity (AC50) under setting [1] was 3.26 µM [rising, single point].
Same read-out and setting: for `CC12CCC(=O)C=C1CCC1C2CCC2(C)C1CC[C@]2(O)C(=O)CO` (stereo partly drawn) the value was 12.6 µM [rising, partial curve, poor fit].
On to `N#CCc1c(C#N)c(N)nc(N2CCN(S(=O)(=O)c3ccccc3)CC2)c1C#N`, for which the AC50 under setting [1] is 25.9 µM [rising, partial curve, poor fit].
`NC(=O)C1CCN(c2nc(-c3ccccc3Br)cs2)CC1`: the AC50 under setting [1] is 0.366 µM [falling, full curve].
For `FC(F)(F)c1ccccc1-c1nc(-c2ccncc2)no1`, the concentration at half-maximal activity (AC50) under setting [1] is 0.562 µM [rising, full curve, poor fit].
As to `C1=C(c2ccccc2)N2CCN=C2S1`, under setting [1], the concentration at half-maximal activity (AC50) was 0.164 µM [falling, full curve].
For the molecule `CCOc1ccccc1N1CCN(C(=O)c2cc3cc(OC)ccc3[nH]2)CC1`, under setting [1], the half-maximal activity concentration (AC50) is 8.91 µM [falling, partial curve, poor fit].
On the same count and under the same terms, for `Cc1cc(C(=O)NNC(=O)c2nn(C)c(=O)c3ccccc23)c(C)o1` the value was 10 µM [falling, partial curve, poor fit]; for `COc1cccc(CN(C)C(=O)c2cc(COc3ccc4ncccc4c3)on2)c1`, 3.98 µM [rising, single point]; for `CCCCCC1CCC(C(=O)NNC(=S)NCC)CC1` (stereo not drawn), 35.5 µM [falling, single point].
Consider `C=CCn1c(=S)[nH]c2cc(-c3ccccc3)sc2c1=O`, for which, under setting [1], the half-maximal activity concentration (AC50) was 1.41 µM [falling, full curve].
Turning to `COc1ccc(NCC(=O)NN=C2CCS(=O)(=O)c3ccc(F)cc32)cc1`, under setting [1], the AC50 was 23.1 µM [rising, partial curve, poor fit].
For the molecule `Cc1cc(C(=O)OCC(=O)Nc2cc(S(=O)(=O)N3CCOCC3)ccc2Cl)c(C)o1`, the half-maximal activity concentration (AC50) under setting [1] was 23.1 µM [falling, single point].
Same read-out and setting: for `COc1ccc(-c2cc(C(=O)O)c(C)o2)cc1OC` the value was 0.0164 µM [falling, full curve, poor fit].
Consider `O=C(Cc1cccs1)NCc1cc(Cl)cc(Cl)c1`, for which the concentration at half-maximal activity (AC50) under setting [1] was 35.5 µM [rising, single point].
On the same count and under the same terms, for `CC(=O)Nc1ccc(-c2nnc(SCc3c(C)cc(C)cc3C)n2C)cc1` the value was 29.1 µM [falling, partial curve, poor fit].
As to `O=c1[nH]cnc2c1cnn2Cc1ccccc1`, the AC50 under setting [1] was 15.8 µM [falling, single point] and the concentration at half-maximal activity (AC50) under setting [2] is 14.1 µM [rising, partial curve, poor fit].
In the case of `CC(=O)Nc1ccc(NC(=O)COC(=O)/C(=C/c2ccccc2)n2nnnc2C)cc1`, the AC50 under setting [1] was 6.31 µM [falling, full curve].
Consider `COc1cccc(-c2nnc(Nc3nc4c(F)cccc4s3)o2)c1`, for which the concentration at half-maximal activity (AC50) under setting [1] was 2.06 µM [falling, full curve] and the half-maximal activity concentration (AC50) under setting [2] is 4.61 µM [falling, full curve].
For `CC(=O)Oc1cc2c(cc1Cl)C1(CC(c3ccccc3Cl)O2)CC(C)(C)NC(=S)N1` (stereo not drawn), the AC50 under setting [1] is 25.9 µM [rising, single point].
On the same count and under the same terms, for `CC(C)(C)NC(=O)CN1CCN(C(=O)CCl)CC1` the value was 3.16 µM [rising, single point]; for `Cc1cccn2c(=O)c(C=NCCO)c(NCc3ccco3)nc12`, 0.461 µM [falling, partial curve, poor fit]; for `CCOc1cc(-c2nc(C)c(C(C)=O)n2O)ccc1OCC(=O)Nc1cccc(C)c1`, 14.1 µM [falling, partial curve, poor fit].
`CCNCCC(=O)N1c2ccccc2Sc2ccc(NC(=O)OCC)cc21`: the AC50 under setting [1] is 25.9 µM [falling, single point].
Take `COC(=O)C1C(O)=C(C=Nc2ccccc2)C(=O)CC1(C)C` (stereo not drawn): the concentration at half-maximal activity (AC50) is 15.8 µM [rising, single point] under setting [1] and 11.2 µM [falling, partial curve] under setting [2].
In the case of `CC(C)C(NC(=O)C1CCCCC1)C(=O)NC1=NCCS1` (stereo not drawn), under setting [1], the half-maximal activity concentration (AC50) was 0.00461 µM [rising, full curve, poor fit].
`COc1ccc(/C=N/NC(=O)c2cccc(O)c2)cc1Cn1nc(C)c([N+](=O)[O-])c1C`: the AC50 under setting [1] is 15.8 µM [falling, partial curve].
The same measure, in the same setting: for `CC(C)CCNC(=O)CN(Cc1cccs1)C(=O)CCC(=O)Nc1nccs1` the value was 29.1 µM [falling, single point]; for `CCC(C)(C)NC(=O)C(c1ccco1)N(C(=O)Cn1nnc2ccccc21)c1ccc2c(c1)OCO2` (stereo not drawn), 29.1 µM [falling, single point].
In the case of `CCOC(=O)N1CCN(C(=O)CCn2c(=S)[nH]c3ccccc3c2=O)CC1`, the AC50 under setting [1] is 5.01 µM [rising, partial curve, poor fit].
Same read-out and setting: for `O=C(/C=C/c1ccccc1)NC1CC2CCC1C2` (stereo not drawn) the value was 20.6 µM [falling, partial curve]; for `COc1ccc(C/C(N)=N/n2cnnc2)cc1Cl`, 0.82 µM [falling, full curve, poor fit].
Still for that read-out and setting: for `COc1ccc(-n2cc(C(=O)c3cc(Cl)ccc3O)cc(C#N)c2=O)cc1` the value was 6.31 µM [falling, full curve, poor fit]; for `C=CCNC(=S)NNC(=O)c1ccc(Br)cc1`, 3.66 µM [falling, single point].
Turning to `CCOc1ccc(C(=O)NCC(=O)OCC(=O)N2CCC(C)CC2)cc1`, under setting [1], the concentration at half-maximal activity (AC50) was 1.84 µM [falling, partial curve, poor fit].
Still for that read-out and setting: for `Cc1ccc(C)c(N2C(=N)S/C(=C\c3ccc(-c4ccccc4C(=O)O)o3)C2=O)c1` the value was 15.8 µM [falling, partial curve, poor fit].
On the same count and under the same terms, for `Cc1ccc(CNc2ncccc2-c2nc3cc(Cl)ccc3o2)cc1` the value was 6.51 µM [rising, single point]; for `COc1cc(NC(=O)CSc2nc3[nH]ncc3c(=O)n2-c2ccc(Cl)cc2)cc(OC)c1`, 15.8 µM [falling, single point]; for `O=C(CSc1nncn1-c1ccccn1)Nc1ccccc1Cl`, 11.2 µM [falling, partial curve, poor fit].
Consider `CCSc1nnc(-c2cccc(S(=O)(=O)N(C)C)c2)n1-c1cc(OC)ccc1OC`, for which the concentration at half-maximal activity (AC50) under setting [1] is 12.6 µM [falling, partial curve, poor fit].
